Laboratory results: article PMC4703986
No constants are given. Whether binding was seen depends on the method and setting. A result given as binding can be weak or reduced; the word gives no strength. For some assays here: Where a sequence is shown, tags or fusion partners need not be part of it.

Amino acid sequences for entries named in this document (tags omitted).
UniProt Q9SJ44: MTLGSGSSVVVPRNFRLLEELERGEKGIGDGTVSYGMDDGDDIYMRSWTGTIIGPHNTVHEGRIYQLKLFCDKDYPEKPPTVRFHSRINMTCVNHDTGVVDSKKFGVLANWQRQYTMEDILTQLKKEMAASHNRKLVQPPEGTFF
UniProt Q9SVD7: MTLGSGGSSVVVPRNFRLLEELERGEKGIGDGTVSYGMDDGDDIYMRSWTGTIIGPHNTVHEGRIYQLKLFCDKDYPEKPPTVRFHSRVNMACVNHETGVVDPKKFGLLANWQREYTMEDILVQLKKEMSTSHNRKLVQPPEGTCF
UniProt Q15819: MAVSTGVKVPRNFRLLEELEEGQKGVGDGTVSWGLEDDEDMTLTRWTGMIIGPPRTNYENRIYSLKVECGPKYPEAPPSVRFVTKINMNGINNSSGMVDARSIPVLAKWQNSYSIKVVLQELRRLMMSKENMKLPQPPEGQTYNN
UniProt Q93YP0: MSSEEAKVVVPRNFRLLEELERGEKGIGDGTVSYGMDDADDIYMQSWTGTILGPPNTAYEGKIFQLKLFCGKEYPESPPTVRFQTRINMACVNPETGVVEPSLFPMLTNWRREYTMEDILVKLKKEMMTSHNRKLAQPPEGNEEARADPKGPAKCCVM
UniProt Q13404: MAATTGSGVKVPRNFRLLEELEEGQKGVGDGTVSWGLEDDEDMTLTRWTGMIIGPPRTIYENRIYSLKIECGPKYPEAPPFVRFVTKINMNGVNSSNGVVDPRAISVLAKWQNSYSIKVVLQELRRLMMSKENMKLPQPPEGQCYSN
UniProt Q9CAB6: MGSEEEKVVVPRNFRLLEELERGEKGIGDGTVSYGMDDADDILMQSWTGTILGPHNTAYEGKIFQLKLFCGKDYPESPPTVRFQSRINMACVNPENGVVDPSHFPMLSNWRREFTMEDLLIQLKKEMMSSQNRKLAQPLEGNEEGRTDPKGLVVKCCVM

Assays:
Assay in all cases: two-hybrid; yeast strain PJ69-4a co-transformed with one Gal4AD (pGAD424) and one Gal4BD (pGBT9) plasmid; growth on synthetic complete medium lacking Trp, Leu and His with 3-AT (5 mM 3-AT named for Figure 2A); 3 days
[1] = molecular target: Arabidopsis Uev1C (AtUev1C), yeast two-hybrid fusion (Arabidopsis) (UniProt Q9SJ44)
[2] = molecular target: T1, yeast Uev1 (yMms2), yeast two-hybrid fusion (budding yeast (S. cerevisiae)) (UniProt P53152)
T1 sequence: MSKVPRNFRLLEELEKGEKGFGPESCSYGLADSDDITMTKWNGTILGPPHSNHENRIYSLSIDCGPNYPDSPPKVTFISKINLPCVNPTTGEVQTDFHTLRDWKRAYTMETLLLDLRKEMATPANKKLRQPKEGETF

[3] = molecular target: Arabidopsis Uev1D (AtUev1D), yeast two-hybrid fusion (Arabidopsis) (UniProt Q9SVD7)
[4] = molecular target: human Mms2 (hMms2), yeast two-hybrid fusion (human) (UniProt Q15819)
[5] = molecular target: Arabidopsis Uev1A (AtUev1A), yeast two-hybrid fusion (Arabidopsis) (UniProt Q93YP0)
[6] = molecular target: human Uev1 (hUev1), yeast two-hybrid fusion (human) (UniProt Q13404)
[7] = molecular target: Arabidopsis Uev1B (AtUev1B), yeast two-hybrid fusion (Arabidopsis) (UniProt Q9CAB6)

Measured: binding

BdUbc13A (Brachypodium distachyon Ubc13A), yeast two-hybrid fusion (from UniProt I1HGH6) (enzyme)
binds: all assays above

BdUbc13B (Brachypodium distachyon Ubc13B), yeast two-hybrid fusion (enzyme)
binds: [2]
